The results in this text go back to paper PMC12613623.

No constants are given. Whether binding was seen depends on the method and setting. In cells and extracts the contact can be indirect. Binding can be weak; no strength is given.

The assay concerns the target SIRT3, endogenous in primary neonatal mouse ventricular myocytes (mouse (endogenous in NMVMs)). Kind of assay: co-IP; endogenous proteins from NMVM lysate; antibodies against ATP5O, SIRT3 or acetylated lysine overnight at 4 °C, protein A/G-agarose beads; western blot with anti-SIRT3 and anti-ATP5O; control, DCM (HG/PA) and CVB-D groups.

B1: ATP5O, endogenous in primary neonatal mouse ventricular myocytes (protein, UniProt Q9DB20 24-213)
chain: FAKLVRPPVQVYGIEGRYATALYSAASKEKKLDQVEKELLRVGQLLKDPKVSLAVLNPYIKRTVKVKSLNDITKREKFSPLTANLMNLLAENGRLGNTQGIISAFSTIMSVHRGEVPCTVTTASPLDDAVLSELKTVLKSFLSPNQILKLEIKTDPSIMGGMIVRIGEKYVDMSAKSKIQKLSKAMREML
Turning to B1, the binding result is reported as “binds”.
